Primary screen of a compound library

The chains behind the UniProt entries cited, without tags or fusion partners. Residues count along the entry.
UniProt Q4DA54, 1-478: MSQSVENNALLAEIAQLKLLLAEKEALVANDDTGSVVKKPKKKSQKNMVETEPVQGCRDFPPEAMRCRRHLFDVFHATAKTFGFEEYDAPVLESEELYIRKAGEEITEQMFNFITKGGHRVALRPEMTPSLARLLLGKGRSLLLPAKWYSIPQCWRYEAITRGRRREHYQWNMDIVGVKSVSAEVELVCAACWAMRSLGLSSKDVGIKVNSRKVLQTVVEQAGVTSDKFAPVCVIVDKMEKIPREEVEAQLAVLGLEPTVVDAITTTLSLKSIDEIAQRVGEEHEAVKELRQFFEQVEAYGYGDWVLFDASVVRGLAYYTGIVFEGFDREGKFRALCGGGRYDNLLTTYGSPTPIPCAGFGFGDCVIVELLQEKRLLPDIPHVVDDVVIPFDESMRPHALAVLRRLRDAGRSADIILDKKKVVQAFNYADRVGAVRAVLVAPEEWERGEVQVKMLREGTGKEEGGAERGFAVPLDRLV
UniProt A4I591, 1-473: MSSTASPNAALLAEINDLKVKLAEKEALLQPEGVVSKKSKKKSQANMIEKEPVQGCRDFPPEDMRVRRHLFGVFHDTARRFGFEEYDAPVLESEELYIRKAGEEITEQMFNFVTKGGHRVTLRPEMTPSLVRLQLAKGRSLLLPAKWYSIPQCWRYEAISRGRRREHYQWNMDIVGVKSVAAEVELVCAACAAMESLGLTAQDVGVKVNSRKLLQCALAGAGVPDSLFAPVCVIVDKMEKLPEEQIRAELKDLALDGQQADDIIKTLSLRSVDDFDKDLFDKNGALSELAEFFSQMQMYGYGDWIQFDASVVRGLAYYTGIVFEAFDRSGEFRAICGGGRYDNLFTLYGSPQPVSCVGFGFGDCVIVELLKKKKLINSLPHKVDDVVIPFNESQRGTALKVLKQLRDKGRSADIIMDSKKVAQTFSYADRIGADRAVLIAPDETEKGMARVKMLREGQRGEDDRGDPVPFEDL
UniProt Q8IDJ8, 1-583: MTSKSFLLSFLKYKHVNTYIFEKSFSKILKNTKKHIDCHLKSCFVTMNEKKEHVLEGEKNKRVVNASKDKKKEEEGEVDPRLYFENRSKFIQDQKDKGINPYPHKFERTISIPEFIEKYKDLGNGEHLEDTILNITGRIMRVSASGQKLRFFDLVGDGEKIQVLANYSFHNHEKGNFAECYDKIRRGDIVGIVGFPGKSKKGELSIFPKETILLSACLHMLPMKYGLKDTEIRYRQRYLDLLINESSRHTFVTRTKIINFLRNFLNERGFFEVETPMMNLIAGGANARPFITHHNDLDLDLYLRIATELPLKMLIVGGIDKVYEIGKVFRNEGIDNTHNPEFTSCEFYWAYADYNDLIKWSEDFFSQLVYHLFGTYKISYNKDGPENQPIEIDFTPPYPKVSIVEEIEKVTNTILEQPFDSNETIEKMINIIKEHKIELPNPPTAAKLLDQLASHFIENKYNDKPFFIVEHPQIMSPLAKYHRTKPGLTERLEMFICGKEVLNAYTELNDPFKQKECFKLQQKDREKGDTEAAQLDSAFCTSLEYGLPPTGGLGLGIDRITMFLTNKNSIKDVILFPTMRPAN
UniProt P9WNZ1, whole entry: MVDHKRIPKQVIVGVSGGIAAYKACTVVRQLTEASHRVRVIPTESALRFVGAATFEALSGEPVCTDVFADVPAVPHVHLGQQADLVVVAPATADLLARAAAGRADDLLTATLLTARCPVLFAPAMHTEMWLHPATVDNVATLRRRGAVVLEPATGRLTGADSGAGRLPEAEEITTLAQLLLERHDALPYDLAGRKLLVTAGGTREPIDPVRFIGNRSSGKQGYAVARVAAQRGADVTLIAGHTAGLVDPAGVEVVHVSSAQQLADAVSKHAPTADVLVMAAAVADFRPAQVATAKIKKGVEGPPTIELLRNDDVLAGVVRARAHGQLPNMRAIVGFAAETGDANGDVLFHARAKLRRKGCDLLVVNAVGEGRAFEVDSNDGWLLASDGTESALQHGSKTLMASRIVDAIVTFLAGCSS

The values are deposited in ChEMBL (CHEMBL3988442, “University of Dundee, Small-Polar-MMV Screening Library” (2021)).

TcHisRS: 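Histidine-tRNA ligase, Trypanosoma cruzi CL Brener (UniProt Q4DA54). Enzyme assay of histidyl-tRNA synthetase; the read-out is not stated. Concentration: 30 µM. The record gives no direction; compounds that gave an IC50 in retests scored well above the rest, so higher reads as stronger inhibition. Of about 69,000 compounds tested this way, about 31 (0.045%) reached 50% or more in at least one test.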
LiHisRS: 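Histidine-tRNA ligase, Leishmania infantum (UniProt A4I591). Enzyme assay of histidyl-tRNA synthetase; the read-out is not stated. Compounds at 30 µM. The record gives no direction; compounds that gave an IC50 in retests scored well above the rest, so higher reads as stronger inhibition. The assay is labelled LdHisRS but filed under L. infantum. About 69,000 compounds were tested under these conditions; 0.6% (about 410) showed 50% or more at least once.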
Toxoplasma: 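Assay of Toxoplasma gondii numbers, read through their beta-galactosidase reporter with a colour substrate. Compounds at 10 µM. The record gives no direction; the compounds picked for IC50 retests had high values, so higher reads as fewer parasites. About 67,000 compounds were tested under these conditions; 0.38% (about 260) showed 50% or more at least once.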
PfKRS1: 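Lysine-tRNA ligase, Plasmodium falciparum 3D7 (UniProt Q8IDJ8). Enzyme assay of the cytosolic lysyl-tRNA synthetase in 384-well plates, read by luminescence. Tested at 30 µM. Higher reads as stronger inhibition, judged from the few compounds that gave an IC50. Of about 69,000 compounds tested this way, about 49 (0.071%) reached 50% or more in at least one test.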
CoaBC: 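Enzyme assay of CoaBC with a phosphate dye (Biomol Green) read at 650 nm. Target: Coenzyme A biosynthesis protein CoaBC, Mycobacterium tuberculosis (UniProt P9WNZ1). Tested at 30 µM. Higher reads as stronger inhibition, judged from the few compounds that gave an IC50. Most strong results did not repeat in a second test. Of about 67,000 compounds tested this way, about 40 (0.06%) reached 50% or more in at least one test.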

Each number is a percent effect as filed. The controls that fix the scale are not given in the record; negative values are as filed. This is an unselected part of the compounds tested. A dash means the value is not listed here; it may have been measured.

compound | TcHisRS | LiHisRS | Toxoplasma | PfKRS1 | CoaBC
Cc1cc(NCCN)nc2ccccc12 | 8.333 | 13.04 | - | 2.632 | 3.417
CCn1nc(C)c2nc(C)nc(NC3CCCC3)c21 | 16.06 | 21.35 | 16.83 | 4.945 | -13.54
CS(=O)(=O)N1CCC(c2nc3ccc(-c4cccc(F)c4)cn3n2)CC1 | 6.145 | 13.46 | -14.99 | 4.959 | 3.758
O=C(O)C(F)(F)F.[H][C@@]12CCN(c3cccnc3)C[C@]1([H])CN(C(=O)c1ccc(F)cc1)C2 | - | - | -28.85 | - | -
Cc1nc(N2CCC(CC(=O)N3CCCC3)CC2)c2cnn(C)c2n1 | 4.867 | 9.735 | 11.63 | 3.964 | -3.738
O=C(NCCN1CCCCC1)c1cccc(Cl)c1Cl | -7.595 | 6.25 | -3.816 | 5.868 | -3.365
O=C(c1ccc(S(=O)(=O)N2CCSCC2)cc1)N1CCCCCC1 | 0 | 9.89 | 16.81 | 1.668 | 7.783
CNC(=O)CN1CCOCC2(C1)CN(C(=O)C(C)C)CCO2 (configuration not stated) | 4.878 | 5.128 | - | 0.3753 | 7.769
COc1ccc2cc(C(=O)NCCNc3ccc(C)nn3)[nH]c2c1 | 3.478 | 8.333 | 9.57 | -7.804 | -4.317
Cc1cc(C)n(CC2CN(c3cnc4ccccc4n3)CCO2)n1 (configuration not stated) | 6.857 | 11.86 | 7.156 | 0.7366 | 3.412
Cc1nc(C)c(C(=O)N2C[C@@H](C(=O)O)[C@H](C3CC3)C2)s1 | 5.217 | -1.667 | -3.532 | -3.51 | 12.95
CN1CCCN(C(=O)c2cnsn2)c2cc(F)ccc21 | 4 | 15.22 | 3.905 | 1.483 | 3.148
[H][C@@]12CCN(Cc3c(C)noc3C)C[C@@]1([H])O[C@@H](c1nccs1)C2 | - | - | -2.529 | - | -
Cc1ccc(N2CC3(COCCN(Cc4ccncc4)C3)OCC2=O)s1 (configuration not stated) | 4.301 | 4.425 | - | 1.945 | -4.842
CC(=O)N1C[C@H]2CNC[C@@]2(C(=O)NCCNc2ccncc2C)C1 | 8.081 | 19.67 | - | 3.754 | -1.023
O=C(CSCC1CC1)N1CCCN(Cc2ccc(F)cc2)CC1 | 8.458 | 13.99 | 12.14 | 3.097 | 1.728
CSc1cccc(CN2CCC(CCC(=O)NC3CC3)CC2)c1 | 5.946 | 0 | -5.383 | 2.522 | 0.4274
CC(C)(C)c1noc(CNc2ccccc2N2CCC(O)CC2)n1 | 14.84 | 15.15 | -4.261 | 6.351 | 1.449
CC(C)c1noc(CCC(=O)N(CC2CCOC2)C2CC2)n1 (configuration not stated) | 1.587 | 8.219 | 2.385 | -1.915 | 1.86
CC(C)c1nn(C)c(N2CCOCC2)c1CNC(C)c1ccccn1 (configuration not stated) | 6.358 | 13.16 | -23.3 | 0.01323 | -1.956
Cc1noc2ncc(C(=O)NCC3CCOC3)cc12 (configuration not stated) | 1.141 | 12 | 0.1411 | -2.607 | -0.7979
[H][C@@]12OCCN(S(=O)(=O)C3CC3)[C@@]1([H])CC[C@H]2OCC(C)C | - | - | 13.96 | - | -
COCC(=O)N1Cc2nccn2CC(COc2cccnc2)C1 (configuration not stated) | 2.857 | 9.722 | 7.498 | -1.698 | 2.096
COCCN(Cc1ccc(F)cc1Cl)C(=O)c1c(C)noc1C | 4.926 | 17.81 | 0.3793 | 5.171 | 1.282
Cn1ccnc1CCC1CCCCN1Cc1nccn1C (configuration not stated) | 7.2 | 18.58 | -0.8626 | 3.897 | -10.83
CC1c2ncc(Cn3cccn3)n2CCN1c1ncccn1.O=C(O)C(F)(F)F (configuration not stated) | - | - | -9.54 | - | -
CCCc1cc(NCCn2cccn2)n2nccc2n1 | 5.978 | 8 | 2.663 | -2.115 | 3.719
Cc1cccc(CN2C[C@@H]3CC[C@H](C2)N(Cc2c(C)noc2C)C3=O)n1 | 6.349 | 9.091 | - | 2.662 | 1.381
c1cc(-c2cn[nH]c2)ccc1CN1CCNCC1 | 4.721 | 4.918 | 1.881 | 5.345 | 9.45
Cc1ccccc1C1(CNC(=O)CCN2C(=O)CCC2=O)CC1 | 2.286 | 10.17 | -19.05 | -0.3026 | 3.675
CCS(=O)(=O)N1Cc2c(Cn3cccc3)nn(C(C)C)c2C1 | 8.021 | 9.402 | -2.121 | 3.084 | -1.25
Cc1noc(C2CCCN(C(=O)CCCNc3ncccn3)C2)n1 (configuration not stated) | 7.331 | 10.19 | 10.95 | 0.4618 | 2.895
Cc1cncc(C2CCCN(C(=O)c3cccn3C)C2)n1 (configuration not stated) | 1.075 | 20 | -8.787 | 4.895 | 2.225
Cc1nc(CN(C)C2CCN(Cc3ccc4ccccc4n3)C2)no1 (configuration not stated) | 17.11 | 53.12 | -0.6674 | 0.5927 | 4.216
CCCS(=O)(=O)NCCc1ncc(C)s1 | 10.89 | 18.68 | -0.5607 | -4.027 | 0.9639
CN1C(=O)CC2(CCN(S(=O)(=O)C3CC3)CC2)c2ccccc21 | 0 | 12.07 | 0.5933 | 14.93 | -
COc1nn(C)cc1C(=O)N1CCC(c2nnc(C(C)C)o2)CC1 | 11 | 15.07 | 4.414 | -0.1284 | -0.1318
CC(C)(C)n1ncc2c1NC(=O)CSC2c1ccc2c(c1)OCCO2 (configuration not stated) | 0.9901 | -1.099 | -0.4005 | -3.203 | 0.241
O=C(O)C(F)(F)F.[H][C@]12C[C@@H](C(=O)NCCc3cccs3)CO[C@@]1([H])CCN(C1CCC1)C2 | - | - | -19.83 | - | -
Cc1nnc(CNC(C)c2cc(C)c(F)c(C)c2)s1 (configuration not stated) | 3.529 | 10.32 | 28.77 | 2.449 | -4.423
CN1CCC2(CC1)Cc1ccccc1CN(C(=O)CN)C2 | 10.06 | 16.55 | 3.582 | -4.739 | 2.632
CC(Cn1cccn1)NCc1csc(COc2ccccc2)n1 (configuration not stated) | 7.849 | 18.42 | 14.92 | 2.435 | 4.773
COc1ccc2c(c1)OCC(CNC(=O)c1ccncc1)C2 (configuration not stated) | -0.8264 | 19.05 | -0.674 | -1.867 | 3.947
CCOc1ccnc(N2CCN(Cc3ncccc3C)CC2)n1 | 7.065 | 8 | -2.189 | 1.324 | -0.8264
Cc1c(Cl)cccc1NCc1nc2n(n1)CCCCC2 | 0 | 17.5 | -0.5461 | 1.534 | 0.3797
CCOC1CCN(CC(=O)Nc2oc(C)c3c(C)n[nH]c(=O)c23)CC1 | 0 | 11.32 | 3.03 | -0.3706 | 9.474
CCCNC(=O)C1CCN(CC2(O)CCC(C)CC2)CC1 (configuration not stated) | 1.571 | 13.79 | 6.026 | 0.6797 | 7.495
CCN1CCN(S(=O)(=O)c2cc(Cl)c(Cl)cc2C)CC1 | 0 | 4.717 | 5.719 | 1.423 | -1.818
CC(c1ccccc1)n1c(SCC(=O)O)nnc1-c1ccccc1Cl (configuration not stated) | 0.813 | 16.35 | -2.501 | -1.419 | 8.017
CC(Cn1cccn1)n1cnc2cccc(F)c2c1=O (configuration not stated) | 10.4 | 14.75 | -2.186 | 6.276 | 10.17
O=c1[nH]c2nc(N3CCSCC3)ncc2c(=O)n1-c1cccc(F)c1 | -13.04 | 25.71 | 5.078 | 10.18 | 1.754
CCOc1c(C(N)=O)cn(C)c1-c1nc2cc(NC(C)=O)ccc2n1C | 4.094 | 0 | -14.74 | 5.698 | 2.273

For reference, 5 entries once more:

compound	TcHisRS	LiHisRS	Toxoplasma	PfKRS1	CoaBC
Cc1cncc(C2CCCN(C(=O)c3cccn3C)C2)n1 (configuration not stated)	1.075	20	-8.787	4.895	2.225
CCN1CCN(S(=O)(=O)c2cc(Cl)c(Cl)cc2C)CC1	0	4.717	5.719	1.423	-1.818
CC(c1ccccc1)n1c(SCC(=O)O)nnc1-c1ccccc1Cl (configuration not stated)	0.813	16.35	-2.501	-1.419	8.017
CC(Cn1cccn1)NCc1csc(COc2ccccc2)n1 (configuration not stated)	7.849	18.42	14.92	2.435	4.773
COc1ccc2cc(C(=O)NCCNc3ccc(C)nn3)[nH]c2c1	3.478	8.333	9.57	-7.804	-4.317